Experimental data reported in the supplement of paper PMC11006884.
Only a part is listed here, and it is no random draw.

Protein sequences, listed by entry. Tags and fused reporters are not part of them. Lines headed by an entry give the natural chain unless they say otherwise; changes in a name come on top.
UniProt Q9Y679: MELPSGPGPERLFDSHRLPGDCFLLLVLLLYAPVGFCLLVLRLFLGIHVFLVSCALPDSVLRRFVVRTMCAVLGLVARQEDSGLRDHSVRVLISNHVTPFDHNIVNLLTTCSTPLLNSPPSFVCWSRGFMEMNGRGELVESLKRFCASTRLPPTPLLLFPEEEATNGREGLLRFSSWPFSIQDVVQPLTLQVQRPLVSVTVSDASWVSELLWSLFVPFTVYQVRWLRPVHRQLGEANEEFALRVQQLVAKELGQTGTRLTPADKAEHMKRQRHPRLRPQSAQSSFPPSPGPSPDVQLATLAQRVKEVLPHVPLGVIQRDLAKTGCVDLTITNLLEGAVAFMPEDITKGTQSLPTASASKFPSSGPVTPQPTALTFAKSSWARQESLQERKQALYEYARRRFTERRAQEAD
UniProt Q9Y4W2: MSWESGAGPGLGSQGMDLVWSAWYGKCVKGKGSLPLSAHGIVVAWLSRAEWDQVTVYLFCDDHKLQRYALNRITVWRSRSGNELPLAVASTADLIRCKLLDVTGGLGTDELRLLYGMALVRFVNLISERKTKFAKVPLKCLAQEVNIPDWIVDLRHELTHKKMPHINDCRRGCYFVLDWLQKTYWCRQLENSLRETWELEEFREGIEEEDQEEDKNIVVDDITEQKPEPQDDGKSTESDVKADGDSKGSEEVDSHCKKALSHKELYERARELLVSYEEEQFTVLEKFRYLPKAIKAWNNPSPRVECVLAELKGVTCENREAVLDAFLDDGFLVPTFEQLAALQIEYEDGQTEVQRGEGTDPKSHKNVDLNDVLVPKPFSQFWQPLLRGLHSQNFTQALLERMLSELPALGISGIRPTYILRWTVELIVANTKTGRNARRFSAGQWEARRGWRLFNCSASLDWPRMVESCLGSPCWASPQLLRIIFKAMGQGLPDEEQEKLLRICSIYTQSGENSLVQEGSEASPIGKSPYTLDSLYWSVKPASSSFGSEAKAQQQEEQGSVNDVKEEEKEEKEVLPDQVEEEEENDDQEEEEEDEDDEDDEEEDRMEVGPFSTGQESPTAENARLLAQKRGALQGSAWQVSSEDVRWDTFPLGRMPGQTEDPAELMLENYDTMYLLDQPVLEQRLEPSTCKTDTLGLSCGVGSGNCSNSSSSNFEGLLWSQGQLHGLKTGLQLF
UniProt Q9Y4W6: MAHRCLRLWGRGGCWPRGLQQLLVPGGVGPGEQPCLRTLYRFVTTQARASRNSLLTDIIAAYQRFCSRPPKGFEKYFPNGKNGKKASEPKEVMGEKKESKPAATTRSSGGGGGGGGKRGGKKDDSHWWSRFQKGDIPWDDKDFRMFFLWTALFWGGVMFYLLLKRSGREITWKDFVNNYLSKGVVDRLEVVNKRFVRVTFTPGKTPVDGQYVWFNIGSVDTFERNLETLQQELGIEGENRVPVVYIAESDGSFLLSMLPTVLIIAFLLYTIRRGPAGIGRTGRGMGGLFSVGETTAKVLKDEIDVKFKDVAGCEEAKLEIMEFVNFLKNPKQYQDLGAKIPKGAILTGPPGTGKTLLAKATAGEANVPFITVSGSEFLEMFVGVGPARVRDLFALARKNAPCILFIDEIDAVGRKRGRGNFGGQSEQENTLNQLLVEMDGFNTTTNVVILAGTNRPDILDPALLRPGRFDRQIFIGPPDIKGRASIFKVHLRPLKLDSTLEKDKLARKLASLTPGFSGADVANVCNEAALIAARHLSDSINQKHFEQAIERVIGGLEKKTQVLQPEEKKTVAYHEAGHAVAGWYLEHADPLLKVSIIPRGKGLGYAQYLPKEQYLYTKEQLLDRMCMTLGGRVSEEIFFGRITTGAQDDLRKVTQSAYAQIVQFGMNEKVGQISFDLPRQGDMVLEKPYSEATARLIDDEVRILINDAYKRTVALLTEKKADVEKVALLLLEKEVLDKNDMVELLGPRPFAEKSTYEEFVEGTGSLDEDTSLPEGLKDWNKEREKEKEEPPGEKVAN
UniProt Q9Y6Y0: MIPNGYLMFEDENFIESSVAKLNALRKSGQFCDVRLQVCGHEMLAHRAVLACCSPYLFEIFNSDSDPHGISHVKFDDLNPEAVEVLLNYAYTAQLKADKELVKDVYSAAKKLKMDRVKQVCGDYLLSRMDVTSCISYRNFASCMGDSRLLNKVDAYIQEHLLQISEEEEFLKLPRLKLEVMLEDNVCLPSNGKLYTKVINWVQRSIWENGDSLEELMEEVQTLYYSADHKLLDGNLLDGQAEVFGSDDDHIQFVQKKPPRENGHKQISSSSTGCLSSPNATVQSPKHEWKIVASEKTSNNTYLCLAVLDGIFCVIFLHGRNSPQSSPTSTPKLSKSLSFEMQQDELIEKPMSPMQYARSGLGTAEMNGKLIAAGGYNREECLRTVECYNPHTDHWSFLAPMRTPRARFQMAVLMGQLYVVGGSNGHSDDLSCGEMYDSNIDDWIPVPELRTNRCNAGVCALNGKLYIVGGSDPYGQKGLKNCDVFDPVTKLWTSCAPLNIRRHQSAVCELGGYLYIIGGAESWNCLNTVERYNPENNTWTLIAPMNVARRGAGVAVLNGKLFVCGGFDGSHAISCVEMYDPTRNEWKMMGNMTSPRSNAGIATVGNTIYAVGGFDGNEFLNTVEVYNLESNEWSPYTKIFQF
UniProt Q9Y5Q8: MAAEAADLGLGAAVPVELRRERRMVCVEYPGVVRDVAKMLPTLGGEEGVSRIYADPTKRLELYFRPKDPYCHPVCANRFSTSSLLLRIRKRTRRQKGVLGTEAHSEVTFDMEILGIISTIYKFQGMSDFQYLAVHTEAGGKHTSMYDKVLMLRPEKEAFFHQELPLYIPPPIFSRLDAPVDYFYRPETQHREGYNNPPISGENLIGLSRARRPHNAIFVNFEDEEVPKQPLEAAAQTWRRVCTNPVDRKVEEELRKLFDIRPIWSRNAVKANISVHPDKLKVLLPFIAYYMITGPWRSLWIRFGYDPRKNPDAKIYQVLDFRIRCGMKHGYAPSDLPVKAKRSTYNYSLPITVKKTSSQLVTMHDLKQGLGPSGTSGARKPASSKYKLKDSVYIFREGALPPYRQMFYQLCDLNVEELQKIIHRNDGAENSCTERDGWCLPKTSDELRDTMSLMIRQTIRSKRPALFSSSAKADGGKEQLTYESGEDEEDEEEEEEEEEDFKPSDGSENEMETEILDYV
UniProt Q9Y5J1: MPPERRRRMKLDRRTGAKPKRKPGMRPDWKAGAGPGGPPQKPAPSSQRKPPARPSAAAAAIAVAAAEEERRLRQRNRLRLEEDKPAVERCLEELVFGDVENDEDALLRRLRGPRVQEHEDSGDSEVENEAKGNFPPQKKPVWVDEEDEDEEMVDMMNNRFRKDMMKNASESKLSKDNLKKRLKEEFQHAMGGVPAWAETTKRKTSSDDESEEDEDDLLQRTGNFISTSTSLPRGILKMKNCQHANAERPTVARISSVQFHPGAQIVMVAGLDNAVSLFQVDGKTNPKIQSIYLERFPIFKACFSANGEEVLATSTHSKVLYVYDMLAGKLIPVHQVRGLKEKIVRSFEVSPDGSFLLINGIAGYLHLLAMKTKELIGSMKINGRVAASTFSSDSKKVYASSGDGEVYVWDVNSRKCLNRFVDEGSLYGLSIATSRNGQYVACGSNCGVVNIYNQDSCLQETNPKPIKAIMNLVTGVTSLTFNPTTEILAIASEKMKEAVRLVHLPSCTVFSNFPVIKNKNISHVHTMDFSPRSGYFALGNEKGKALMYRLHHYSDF
UniProt Q9Y508: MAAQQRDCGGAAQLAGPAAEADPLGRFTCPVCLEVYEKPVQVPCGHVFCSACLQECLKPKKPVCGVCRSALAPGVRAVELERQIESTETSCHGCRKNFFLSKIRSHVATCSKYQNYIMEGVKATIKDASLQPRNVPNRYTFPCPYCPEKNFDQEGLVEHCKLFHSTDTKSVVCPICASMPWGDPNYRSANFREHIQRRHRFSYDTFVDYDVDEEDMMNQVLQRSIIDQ
UniProt Q9Y6X4: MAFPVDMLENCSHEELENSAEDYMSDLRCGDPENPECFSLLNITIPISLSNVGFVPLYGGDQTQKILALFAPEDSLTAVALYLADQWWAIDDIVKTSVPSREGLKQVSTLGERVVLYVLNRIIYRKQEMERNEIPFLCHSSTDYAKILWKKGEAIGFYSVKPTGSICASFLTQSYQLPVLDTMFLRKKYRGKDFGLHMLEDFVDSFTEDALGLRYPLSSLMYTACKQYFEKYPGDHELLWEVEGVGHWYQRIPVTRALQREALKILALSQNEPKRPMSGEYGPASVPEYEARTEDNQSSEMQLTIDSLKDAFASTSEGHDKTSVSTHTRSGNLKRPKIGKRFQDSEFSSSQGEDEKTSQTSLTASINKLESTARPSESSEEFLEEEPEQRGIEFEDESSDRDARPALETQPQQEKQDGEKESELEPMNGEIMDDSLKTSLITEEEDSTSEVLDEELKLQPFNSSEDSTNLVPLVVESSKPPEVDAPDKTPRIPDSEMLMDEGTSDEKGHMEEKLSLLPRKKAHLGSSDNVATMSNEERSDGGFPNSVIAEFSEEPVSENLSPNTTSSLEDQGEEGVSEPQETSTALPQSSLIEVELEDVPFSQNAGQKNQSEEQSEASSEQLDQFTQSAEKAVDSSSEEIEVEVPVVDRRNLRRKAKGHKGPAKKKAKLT
UniProt Q9Y496, whole entry: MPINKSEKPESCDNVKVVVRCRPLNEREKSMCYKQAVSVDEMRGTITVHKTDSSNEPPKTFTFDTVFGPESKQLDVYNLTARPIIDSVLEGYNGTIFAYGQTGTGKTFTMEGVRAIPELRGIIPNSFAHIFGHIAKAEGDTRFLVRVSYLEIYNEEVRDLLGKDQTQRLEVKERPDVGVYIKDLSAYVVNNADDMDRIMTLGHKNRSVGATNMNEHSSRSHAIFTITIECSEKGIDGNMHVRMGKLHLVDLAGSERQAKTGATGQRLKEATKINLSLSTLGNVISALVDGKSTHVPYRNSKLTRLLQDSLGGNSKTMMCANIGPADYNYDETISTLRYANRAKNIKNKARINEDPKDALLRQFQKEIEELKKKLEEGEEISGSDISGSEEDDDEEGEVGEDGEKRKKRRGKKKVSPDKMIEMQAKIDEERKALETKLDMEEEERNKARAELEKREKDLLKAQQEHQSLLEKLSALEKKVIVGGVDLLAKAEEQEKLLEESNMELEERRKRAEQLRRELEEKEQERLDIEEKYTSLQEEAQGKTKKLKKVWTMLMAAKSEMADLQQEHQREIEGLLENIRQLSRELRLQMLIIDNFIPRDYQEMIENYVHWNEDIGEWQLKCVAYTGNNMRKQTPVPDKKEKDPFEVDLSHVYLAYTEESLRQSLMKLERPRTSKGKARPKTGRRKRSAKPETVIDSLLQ
UniProt Q9Y4R8, whole entry, looked up: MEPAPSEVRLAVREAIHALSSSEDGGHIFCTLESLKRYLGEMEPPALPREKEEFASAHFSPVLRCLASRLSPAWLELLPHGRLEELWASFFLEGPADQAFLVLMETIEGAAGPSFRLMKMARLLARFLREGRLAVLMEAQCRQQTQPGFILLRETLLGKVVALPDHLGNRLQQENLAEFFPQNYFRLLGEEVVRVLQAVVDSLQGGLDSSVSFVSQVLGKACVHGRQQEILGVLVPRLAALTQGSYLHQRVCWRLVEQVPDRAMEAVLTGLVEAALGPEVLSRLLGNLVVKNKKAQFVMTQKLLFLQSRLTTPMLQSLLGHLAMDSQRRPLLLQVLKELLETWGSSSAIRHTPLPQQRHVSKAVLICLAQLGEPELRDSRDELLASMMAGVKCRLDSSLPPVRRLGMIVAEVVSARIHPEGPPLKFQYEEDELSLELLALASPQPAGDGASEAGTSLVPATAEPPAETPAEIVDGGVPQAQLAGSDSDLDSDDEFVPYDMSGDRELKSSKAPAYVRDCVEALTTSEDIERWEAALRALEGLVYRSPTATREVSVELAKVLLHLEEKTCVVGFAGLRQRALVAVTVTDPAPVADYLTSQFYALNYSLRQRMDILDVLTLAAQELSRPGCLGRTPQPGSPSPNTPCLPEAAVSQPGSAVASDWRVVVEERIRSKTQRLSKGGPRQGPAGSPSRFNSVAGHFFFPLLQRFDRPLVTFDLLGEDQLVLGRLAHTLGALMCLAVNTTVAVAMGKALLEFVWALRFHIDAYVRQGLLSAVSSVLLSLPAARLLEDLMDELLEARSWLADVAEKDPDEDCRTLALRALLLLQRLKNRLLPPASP
UniProt Q9Y6C9: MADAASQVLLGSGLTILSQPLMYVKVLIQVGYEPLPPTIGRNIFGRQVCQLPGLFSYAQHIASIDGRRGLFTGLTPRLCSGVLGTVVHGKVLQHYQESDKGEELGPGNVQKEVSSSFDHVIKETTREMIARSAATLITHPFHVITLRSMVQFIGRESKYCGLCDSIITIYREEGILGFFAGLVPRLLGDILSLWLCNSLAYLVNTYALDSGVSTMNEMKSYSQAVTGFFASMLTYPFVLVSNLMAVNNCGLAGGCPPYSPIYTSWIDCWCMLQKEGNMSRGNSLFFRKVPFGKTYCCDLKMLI
UniProt Q9Y4Z0: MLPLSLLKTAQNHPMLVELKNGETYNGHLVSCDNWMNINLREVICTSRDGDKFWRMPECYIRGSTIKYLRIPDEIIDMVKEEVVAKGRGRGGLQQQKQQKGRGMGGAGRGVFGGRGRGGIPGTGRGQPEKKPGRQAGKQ

compound: COC(=O)C#Cc1ccccc1 [methyl 3-phenylpropiolate]; assay: log2 ratio of iodoacetamide-alkyne labeling of the cysteine site, DMSO over compound (competition); higher = stronger covalent engagement of the cysteine by the compound, active = 1 or more; settings: 500 µM; treatment time 1 h; system: HEK293T cell lysate
Procedure, shortened: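 HEK293T lysate (2 mg/mL) was incubated with electrophile (500 µM) or vehicle for 1 h at ambient temperature and then with iodoacetamide alkyne for 1 h. Labelled proteins were clicked to sCIP-TMT reagents, pooled, digested, enriched on streptavidin and measured by Orbitrap Eclipse LC-MS/MS with FAIMS, with FragPipe quantification. The per-cysteine log2 competition ratio is mean control-channel reporter intensity over mean compound-channel reporter intensity. Across three replicates with duplicate channels, cysteines quantified in only one replicate were excluded.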

log2 ratio of iodoacetamide-alkyne labeling, active:
PPME1 C386 (UniProt Q9Y570) 1.48

log2 ratio of iodoacetamide-alkyne labeling, inactive:
AUP1 C391 (UniProt Q9Y679) 0.156, TNPO3 C912 (UniProt Q9Y5L0) 0.344, LAS1L C504 (UniProt Q9Y4W2) 0.286, AFG3L2 C313 (UniProt Q9Y4W6) 0.313, IVNS1ABP C274 (UniProt Q9Y6Y0) 0.419, ZHX2 C738 (UniProt Q9Y6X8) 0.426, NUBP2 C269 (UniProt Q9Y5Y2) 0.154, UniProt Q9Y5P4_C185 0.187, GTF3C5 C411 (UniProt Q9Y5Q8) 0.205, TLN1 C286 (UniProt Q9Y490) 0.447, GMPPB C230 (UniProt Q9Y5P6) -0.0616, LAS1L C306 (UniProt Q9Y4W2) 0.239, CD2AP C540 (UniProt Q9Y5K6) 0.456, UTP18 C241 (UniProt Q9Y5J1) 0.238, RNF114 C8 (UniProt Q9Y508) 0.412, NFS1 C426 (UniProt Q9Y697) 0.148, AFG3L2 C525 (UniProt Q9Y4W6) 0.198, LAS1L C469 (UniProt Q9Y4W2) -0.00835, UniProt Q9Y4B6_C784 0.615, SEC23IP C457 (UniProt Q9Y6Y8) 0.296, LAS1L C690 (UniProt Q9Y4W2) 0.684, RBM19 C293 (UniProt Q9Y4C8) -0.167, FAM169A C11 (UniProt Q9Y6X4) -0.0829, KIF3A C621 (UniProt Q9Y496) 0.962, SNX9 C252 (UniProt Q9Y5X1) 0.334, TELO2 C518 (UniProt Q9Y4R8) -0.218, MTCH2 C49 (UniProt Q9Y6C9) -0.016, UniProt Q9Y678_C325 0.253, LSM4 C45 (UniProt Q9Y4Z0) 0.104
